Only a part is listed here, and it is no random draw.
compound: COC(=O)C#Cc1ccccc1 [methyl 3-phenylpropiolate]; test: log2 ratio of iodoacetamide-alkyne labeling of the cysteine site, DMSO over compound (competition); higher = stronger covalent engagement of the cysteine by the compound, active = 1 or more; conditions: 500 µM; treatment time 1 h; system: HEK293T cell lysate
How it was run: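 The log2 competition ratio per cysteine is defined as mean reporter intensity in control channels over mean reporter intensity in compound channels. Lysate from HEK293T cells (2 mg/mL) received electrophile (500 µM) or vehicle for 1 h at ambient temperature, followed by iodoacetamide alkyne for 1 h. Samples were clicked to sCIP-TMT reagents, pooled, trypsin-digested overnight at 37 °C, streptavidin-enriched, acid-eluted and run on Orbitrap Eclipse LC-MS/MS with FAIMS, with quantification in FragPipe. Three replicates with duplicate channels were used, and any cysteine quantified in only one replicate was excluded.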

Protein sequences, listed by entry. Tags and fused reporters are not part of them. Lines headed by an entry give the natural chain unless they say otherwise; changes in a name come on top.
UniProt Q9UGI8: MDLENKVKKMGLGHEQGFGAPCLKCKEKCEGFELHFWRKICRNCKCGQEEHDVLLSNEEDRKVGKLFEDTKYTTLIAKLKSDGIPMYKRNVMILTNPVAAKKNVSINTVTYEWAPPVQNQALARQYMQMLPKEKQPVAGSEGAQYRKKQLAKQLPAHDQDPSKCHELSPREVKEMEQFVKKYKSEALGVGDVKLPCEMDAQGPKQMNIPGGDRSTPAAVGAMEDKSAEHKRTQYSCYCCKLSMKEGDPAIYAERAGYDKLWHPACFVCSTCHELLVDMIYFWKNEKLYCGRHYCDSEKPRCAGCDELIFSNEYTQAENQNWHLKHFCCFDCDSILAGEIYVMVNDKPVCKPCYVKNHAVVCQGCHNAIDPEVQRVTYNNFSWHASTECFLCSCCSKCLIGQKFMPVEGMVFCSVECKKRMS
UniProt Q9NXU5: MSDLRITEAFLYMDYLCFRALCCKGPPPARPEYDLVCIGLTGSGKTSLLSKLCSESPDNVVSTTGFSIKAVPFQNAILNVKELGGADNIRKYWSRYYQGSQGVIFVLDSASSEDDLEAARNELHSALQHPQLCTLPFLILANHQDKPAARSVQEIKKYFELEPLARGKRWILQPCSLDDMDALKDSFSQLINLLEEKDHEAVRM
UniProt Q9NVI7: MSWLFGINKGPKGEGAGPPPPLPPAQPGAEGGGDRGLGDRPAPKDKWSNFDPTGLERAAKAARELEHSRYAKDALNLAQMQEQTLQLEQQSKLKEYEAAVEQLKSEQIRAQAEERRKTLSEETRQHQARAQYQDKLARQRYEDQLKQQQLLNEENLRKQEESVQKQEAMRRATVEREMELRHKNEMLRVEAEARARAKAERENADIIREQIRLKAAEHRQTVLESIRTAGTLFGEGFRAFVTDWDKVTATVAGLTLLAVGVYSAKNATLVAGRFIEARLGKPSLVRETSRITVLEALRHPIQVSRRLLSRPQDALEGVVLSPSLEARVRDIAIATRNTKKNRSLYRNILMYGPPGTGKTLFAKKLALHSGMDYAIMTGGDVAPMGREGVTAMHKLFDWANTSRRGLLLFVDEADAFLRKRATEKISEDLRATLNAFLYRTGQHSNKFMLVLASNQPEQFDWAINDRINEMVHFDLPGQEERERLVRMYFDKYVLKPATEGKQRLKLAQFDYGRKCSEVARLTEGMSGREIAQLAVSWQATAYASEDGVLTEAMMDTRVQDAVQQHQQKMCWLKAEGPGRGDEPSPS
UniProt Q9NVX7: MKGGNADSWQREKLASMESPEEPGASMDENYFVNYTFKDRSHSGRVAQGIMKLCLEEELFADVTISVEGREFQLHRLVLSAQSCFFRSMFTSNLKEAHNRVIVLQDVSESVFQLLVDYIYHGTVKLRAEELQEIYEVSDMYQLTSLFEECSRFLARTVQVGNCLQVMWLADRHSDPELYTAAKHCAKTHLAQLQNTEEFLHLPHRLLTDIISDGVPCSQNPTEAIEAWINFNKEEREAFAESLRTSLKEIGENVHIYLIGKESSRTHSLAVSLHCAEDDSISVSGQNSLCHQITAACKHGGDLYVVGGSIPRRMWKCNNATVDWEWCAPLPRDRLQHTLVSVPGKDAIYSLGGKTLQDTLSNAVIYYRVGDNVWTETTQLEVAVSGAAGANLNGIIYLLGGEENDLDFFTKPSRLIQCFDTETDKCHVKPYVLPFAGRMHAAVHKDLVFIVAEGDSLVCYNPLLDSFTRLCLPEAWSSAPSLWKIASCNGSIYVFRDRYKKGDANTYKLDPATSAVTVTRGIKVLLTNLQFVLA
UniProt Q9NVR2, whole entry: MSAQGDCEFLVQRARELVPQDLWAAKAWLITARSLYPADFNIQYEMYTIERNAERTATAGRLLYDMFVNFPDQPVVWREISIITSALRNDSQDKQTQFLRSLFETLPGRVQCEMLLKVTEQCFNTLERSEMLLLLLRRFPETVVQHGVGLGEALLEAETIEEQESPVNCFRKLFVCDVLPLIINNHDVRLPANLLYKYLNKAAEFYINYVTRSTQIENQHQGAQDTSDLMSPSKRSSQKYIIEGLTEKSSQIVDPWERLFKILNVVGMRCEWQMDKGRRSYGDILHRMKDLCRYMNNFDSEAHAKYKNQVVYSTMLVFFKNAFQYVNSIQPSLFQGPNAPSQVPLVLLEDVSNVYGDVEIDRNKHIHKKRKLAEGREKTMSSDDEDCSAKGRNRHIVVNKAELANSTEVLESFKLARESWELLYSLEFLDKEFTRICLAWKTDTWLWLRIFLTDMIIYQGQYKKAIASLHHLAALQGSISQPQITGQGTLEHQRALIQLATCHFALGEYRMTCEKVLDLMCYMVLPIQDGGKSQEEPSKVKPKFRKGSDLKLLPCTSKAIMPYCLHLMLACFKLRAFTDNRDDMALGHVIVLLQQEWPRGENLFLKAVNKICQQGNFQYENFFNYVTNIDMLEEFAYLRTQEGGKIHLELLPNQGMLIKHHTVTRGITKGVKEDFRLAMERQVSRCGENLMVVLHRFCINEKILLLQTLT
UniProt Q9UGV2: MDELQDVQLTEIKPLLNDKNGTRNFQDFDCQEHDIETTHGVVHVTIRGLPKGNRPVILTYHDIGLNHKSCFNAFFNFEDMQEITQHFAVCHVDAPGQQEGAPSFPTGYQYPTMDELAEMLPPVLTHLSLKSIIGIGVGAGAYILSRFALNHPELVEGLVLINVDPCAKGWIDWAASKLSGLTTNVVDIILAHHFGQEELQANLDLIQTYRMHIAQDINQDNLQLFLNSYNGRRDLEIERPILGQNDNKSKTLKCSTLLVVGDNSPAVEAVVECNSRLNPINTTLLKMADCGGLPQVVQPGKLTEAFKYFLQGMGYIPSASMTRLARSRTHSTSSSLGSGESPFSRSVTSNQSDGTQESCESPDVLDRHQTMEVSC
UniProt Q9P0K7: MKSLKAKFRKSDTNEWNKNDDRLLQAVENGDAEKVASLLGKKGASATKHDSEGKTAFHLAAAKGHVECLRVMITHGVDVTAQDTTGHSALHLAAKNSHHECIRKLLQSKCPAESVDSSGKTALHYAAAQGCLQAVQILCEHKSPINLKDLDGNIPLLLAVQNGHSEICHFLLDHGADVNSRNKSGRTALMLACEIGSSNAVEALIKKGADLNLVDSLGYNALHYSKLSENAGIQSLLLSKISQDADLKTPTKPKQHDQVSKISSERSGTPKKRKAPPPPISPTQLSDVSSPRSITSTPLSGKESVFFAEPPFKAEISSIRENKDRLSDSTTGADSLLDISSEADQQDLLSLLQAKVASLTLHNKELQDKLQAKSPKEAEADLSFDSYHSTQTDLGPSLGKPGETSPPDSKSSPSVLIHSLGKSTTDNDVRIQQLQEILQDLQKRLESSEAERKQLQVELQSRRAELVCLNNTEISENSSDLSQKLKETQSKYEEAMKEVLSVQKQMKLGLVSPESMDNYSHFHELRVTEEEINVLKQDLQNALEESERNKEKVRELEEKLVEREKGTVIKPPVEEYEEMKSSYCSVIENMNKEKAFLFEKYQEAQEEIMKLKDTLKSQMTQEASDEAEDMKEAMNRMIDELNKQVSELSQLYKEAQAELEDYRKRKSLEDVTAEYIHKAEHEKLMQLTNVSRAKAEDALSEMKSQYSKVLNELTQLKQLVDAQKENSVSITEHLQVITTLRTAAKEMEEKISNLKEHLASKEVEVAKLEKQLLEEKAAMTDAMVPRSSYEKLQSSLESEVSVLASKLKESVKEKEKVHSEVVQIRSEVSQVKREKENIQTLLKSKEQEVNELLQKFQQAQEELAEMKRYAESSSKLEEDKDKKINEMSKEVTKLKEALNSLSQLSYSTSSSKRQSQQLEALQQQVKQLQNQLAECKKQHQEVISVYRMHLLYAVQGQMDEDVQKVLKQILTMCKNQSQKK
UniProt Q9NVG8: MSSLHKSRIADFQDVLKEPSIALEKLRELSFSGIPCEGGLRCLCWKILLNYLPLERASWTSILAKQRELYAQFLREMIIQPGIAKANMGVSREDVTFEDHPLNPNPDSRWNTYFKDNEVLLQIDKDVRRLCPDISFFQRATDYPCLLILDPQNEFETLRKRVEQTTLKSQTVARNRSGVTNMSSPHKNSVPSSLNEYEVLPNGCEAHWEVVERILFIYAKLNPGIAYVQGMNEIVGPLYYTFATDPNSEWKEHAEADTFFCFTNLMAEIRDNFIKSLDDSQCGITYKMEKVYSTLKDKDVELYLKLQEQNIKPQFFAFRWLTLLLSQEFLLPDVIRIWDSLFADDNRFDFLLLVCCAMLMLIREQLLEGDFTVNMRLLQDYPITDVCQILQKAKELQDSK
UniProt Q9UBF2: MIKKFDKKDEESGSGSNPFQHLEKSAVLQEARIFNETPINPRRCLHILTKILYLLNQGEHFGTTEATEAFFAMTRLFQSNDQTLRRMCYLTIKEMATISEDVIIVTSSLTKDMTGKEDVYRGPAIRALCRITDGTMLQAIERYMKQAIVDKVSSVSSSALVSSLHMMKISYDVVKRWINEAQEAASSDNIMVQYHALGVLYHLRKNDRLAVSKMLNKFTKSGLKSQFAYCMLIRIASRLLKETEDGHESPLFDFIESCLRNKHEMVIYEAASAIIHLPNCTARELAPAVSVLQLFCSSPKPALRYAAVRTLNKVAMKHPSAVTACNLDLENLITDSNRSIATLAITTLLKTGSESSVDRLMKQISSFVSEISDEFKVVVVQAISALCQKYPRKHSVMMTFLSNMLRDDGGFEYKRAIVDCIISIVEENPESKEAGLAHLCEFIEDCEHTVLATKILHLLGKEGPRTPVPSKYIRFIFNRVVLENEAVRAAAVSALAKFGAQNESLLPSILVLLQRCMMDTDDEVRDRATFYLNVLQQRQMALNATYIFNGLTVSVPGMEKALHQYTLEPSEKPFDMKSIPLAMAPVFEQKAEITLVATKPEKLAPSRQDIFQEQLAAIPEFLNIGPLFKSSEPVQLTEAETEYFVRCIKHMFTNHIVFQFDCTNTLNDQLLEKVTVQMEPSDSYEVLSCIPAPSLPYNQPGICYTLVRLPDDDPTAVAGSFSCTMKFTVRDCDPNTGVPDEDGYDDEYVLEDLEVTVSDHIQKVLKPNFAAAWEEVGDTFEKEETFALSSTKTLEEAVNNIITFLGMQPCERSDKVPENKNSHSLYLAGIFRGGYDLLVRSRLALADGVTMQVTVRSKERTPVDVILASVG
UniProt Q9NWY4: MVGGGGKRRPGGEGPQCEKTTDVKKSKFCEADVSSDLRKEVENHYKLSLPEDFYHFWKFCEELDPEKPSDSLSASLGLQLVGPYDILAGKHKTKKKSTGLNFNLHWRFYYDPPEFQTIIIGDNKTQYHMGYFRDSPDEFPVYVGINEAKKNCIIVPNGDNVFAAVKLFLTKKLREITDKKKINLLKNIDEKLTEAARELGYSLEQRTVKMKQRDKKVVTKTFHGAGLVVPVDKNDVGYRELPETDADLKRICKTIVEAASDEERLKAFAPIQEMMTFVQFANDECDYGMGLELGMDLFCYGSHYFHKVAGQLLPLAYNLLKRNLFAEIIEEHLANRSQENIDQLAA
UniProt Q9UGP4: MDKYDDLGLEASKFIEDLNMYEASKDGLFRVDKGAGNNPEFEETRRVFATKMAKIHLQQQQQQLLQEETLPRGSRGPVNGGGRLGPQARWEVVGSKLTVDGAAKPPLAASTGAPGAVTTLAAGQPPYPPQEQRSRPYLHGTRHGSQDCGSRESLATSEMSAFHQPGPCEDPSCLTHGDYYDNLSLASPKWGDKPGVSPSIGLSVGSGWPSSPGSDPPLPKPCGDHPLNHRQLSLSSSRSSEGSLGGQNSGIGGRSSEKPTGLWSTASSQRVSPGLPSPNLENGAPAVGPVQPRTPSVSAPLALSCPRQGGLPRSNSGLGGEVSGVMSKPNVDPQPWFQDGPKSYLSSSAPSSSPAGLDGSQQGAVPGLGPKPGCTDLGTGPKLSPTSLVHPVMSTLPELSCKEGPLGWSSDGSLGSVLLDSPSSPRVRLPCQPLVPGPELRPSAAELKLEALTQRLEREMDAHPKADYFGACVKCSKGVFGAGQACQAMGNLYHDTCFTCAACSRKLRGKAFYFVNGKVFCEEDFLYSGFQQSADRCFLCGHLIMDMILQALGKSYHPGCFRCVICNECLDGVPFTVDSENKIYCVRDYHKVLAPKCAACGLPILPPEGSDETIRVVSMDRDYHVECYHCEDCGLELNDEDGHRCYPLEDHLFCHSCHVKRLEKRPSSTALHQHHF

Target | log2 ratio of iodoacetamide-alkyne labeling
TES C238 (UniProt Q9UGI8) | inactive: 0.00153
ARL15 C53 (UniProt Q9NXU5) | inactive: 0.218
ATAD3A C618 (UniProt Q9NVI7) | inactive: 0.539
KBTBD4 C455 (UniProt Q9NVX7) | inactive: 0.248
INTS10 C7 (UniProt Q9NVR2) | inactive: 0.735
NDRG3 C359 (UniProt Q9UGV2) | inactive: 0.319
RAI14 C110 (UniProt Q9P0K7) | inactive: -0.377
TBC1D13 C387 (UniProt Q9NVG8) | inactive: 0.302
PHRF1 C878 (UniProt Q9P1Y6) | inactive: -0.0465
LARS C113 (UniProt Q9P2J5) | inactive: 0.179
TJP2 C601 (UniProt Q9UDY2) | inactive: 0.237
COPG2 C325 (UniProt Q9UBF2) | inactive: 0.149
COPG2 C296 (UniProt Q9UBF2) | inactive: 0.0508
UniProt Q9NWY4_C152 | inactive: 0.039
LIMD1 C148 (UniProt Q9UGP4) | inactive: 0.445
UniProt Q9NWY4_C29 | inactive: 0.445

Part of the list above, set out differently:

| Target | log2 ratio of iodoacetamide-alkyne labeling |
| --- | --- |
| TES C238 (UniProt Q9UGI8) | inactive: 0.00153 |
| UniProt Q9NWY4_C152 | inactive: 0.039 |
